In the supplement of paper PMC12823440, “Inhibitors supercharge kinase turnover through native proteolytic circuits” (Nature, 2025):
Where a name gives a salt, the structure may show the parent alone. This is one part of the list. Hit calls seldom repeat between salt and free forms of one compound.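 In K562 cells expressing nanoluciferase-fused kinases, luminescence was recorded at 4 h intervals between 2 and 18 h, normalized as percent of control with DMSO at 100% and a positive control at 0%. A significant (2 sigma) signal drop marks a time point as decreased. The authors' rule for a hit is not shown and takes in more than the number of time points.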

Chains of the proteins cited; added tags and fusions are not shown. Lines headed by an entry give the natural chain unless they say otherwise; changes in a name come on top.
UniProt P06241, whole entry, looked up: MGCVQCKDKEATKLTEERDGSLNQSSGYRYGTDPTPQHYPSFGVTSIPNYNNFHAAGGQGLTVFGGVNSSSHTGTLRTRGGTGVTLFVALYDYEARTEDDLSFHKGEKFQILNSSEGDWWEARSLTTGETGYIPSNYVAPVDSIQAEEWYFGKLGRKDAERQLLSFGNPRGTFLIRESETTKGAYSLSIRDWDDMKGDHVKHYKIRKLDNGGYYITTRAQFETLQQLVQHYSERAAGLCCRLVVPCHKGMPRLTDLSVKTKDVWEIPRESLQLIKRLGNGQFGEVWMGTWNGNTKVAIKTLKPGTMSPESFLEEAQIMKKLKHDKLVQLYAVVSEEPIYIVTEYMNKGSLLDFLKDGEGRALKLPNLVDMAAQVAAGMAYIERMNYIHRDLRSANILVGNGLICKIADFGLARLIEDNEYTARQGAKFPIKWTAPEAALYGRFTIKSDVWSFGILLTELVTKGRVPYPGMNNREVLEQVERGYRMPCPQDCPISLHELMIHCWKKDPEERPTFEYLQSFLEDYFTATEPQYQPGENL
UniProt P14616: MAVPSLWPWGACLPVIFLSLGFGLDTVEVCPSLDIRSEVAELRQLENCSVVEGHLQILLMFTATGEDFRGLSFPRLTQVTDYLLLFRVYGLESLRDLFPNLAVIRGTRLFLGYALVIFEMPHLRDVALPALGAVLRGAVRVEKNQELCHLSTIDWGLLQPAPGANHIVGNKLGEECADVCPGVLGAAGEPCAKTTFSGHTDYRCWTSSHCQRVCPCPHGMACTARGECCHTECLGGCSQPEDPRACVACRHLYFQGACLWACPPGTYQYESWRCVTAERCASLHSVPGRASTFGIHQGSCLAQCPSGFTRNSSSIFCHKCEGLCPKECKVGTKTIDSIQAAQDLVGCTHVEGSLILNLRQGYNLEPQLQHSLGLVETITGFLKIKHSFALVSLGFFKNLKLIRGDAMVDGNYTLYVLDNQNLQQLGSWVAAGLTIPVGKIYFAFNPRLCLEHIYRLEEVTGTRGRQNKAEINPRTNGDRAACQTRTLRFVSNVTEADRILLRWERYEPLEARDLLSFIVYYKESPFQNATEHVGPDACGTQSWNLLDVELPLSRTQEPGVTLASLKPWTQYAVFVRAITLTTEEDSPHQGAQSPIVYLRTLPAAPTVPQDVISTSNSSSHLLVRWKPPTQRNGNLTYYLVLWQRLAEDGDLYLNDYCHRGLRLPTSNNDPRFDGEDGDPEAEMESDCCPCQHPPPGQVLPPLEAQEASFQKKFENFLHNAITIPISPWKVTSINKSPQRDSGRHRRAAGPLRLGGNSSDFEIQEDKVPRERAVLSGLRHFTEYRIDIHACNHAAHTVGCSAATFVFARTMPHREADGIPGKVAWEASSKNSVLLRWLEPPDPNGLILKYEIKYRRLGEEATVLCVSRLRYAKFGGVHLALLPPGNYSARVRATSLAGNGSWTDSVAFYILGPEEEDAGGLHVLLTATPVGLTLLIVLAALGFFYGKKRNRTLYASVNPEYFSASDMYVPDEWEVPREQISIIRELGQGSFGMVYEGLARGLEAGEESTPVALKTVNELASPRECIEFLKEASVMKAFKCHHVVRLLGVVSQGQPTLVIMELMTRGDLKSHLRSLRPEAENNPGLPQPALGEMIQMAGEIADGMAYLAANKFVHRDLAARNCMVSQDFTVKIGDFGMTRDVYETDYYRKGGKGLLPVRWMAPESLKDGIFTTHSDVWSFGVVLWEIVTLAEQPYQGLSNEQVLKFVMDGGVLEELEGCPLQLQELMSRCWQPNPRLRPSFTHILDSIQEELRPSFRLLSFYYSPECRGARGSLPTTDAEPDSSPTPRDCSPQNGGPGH
UniProt Q9Y616: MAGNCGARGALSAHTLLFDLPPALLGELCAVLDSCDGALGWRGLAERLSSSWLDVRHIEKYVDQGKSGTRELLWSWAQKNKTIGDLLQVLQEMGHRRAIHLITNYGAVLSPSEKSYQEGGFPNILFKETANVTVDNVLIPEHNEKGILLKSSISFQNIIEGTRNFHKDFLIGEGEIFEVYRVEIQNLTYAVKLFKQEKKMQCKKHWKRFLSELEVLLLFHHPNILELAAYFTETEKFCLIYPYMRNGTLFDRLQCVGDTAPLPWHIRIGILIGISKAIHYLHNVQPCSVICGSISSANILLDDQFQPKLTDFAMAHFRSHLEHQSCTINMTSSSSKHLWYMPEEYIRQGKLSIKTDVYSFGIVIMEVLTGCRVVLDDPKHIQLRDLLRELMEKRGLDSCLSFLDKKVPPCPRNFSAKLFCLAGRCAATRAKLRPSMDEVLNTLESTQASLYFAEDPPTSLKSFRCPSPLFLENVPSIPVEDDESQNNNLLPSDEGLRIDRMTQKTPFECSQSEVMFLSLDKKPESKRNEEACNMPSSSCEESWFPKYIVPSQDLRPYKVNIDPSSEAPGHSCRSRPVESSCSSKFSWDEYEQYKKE
UniProt P53671: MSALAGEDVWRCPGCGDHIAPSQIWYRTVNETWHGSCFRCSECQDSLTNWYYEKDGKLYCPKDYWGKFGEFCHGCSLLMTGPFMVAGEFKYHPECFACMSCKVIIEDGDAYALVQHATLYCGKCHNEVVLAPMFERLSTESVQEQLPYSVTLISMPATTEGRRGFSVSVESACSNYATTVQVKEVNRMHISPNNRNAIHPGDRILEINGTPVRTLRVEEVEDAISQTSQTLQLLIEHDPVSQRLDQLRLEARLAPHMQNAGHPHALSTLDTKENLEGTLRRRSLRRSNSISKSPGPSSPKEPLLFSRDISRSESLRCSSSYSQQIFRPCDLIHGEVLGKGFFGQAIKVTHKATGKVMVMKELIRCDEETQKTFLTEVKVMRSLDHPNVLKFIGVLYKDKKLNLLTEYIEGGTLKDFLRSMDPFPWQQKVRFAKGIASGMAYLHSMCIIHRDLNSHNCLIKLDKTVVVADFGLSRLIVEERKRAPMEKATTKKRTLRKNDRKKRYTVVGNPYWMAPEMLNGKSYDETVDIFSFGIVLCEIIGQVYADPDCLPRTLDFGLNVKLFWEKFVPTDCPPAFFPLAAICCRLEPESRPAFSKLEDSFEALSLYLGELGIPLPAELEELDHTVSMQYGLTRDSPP
UniProt Q8IWU2: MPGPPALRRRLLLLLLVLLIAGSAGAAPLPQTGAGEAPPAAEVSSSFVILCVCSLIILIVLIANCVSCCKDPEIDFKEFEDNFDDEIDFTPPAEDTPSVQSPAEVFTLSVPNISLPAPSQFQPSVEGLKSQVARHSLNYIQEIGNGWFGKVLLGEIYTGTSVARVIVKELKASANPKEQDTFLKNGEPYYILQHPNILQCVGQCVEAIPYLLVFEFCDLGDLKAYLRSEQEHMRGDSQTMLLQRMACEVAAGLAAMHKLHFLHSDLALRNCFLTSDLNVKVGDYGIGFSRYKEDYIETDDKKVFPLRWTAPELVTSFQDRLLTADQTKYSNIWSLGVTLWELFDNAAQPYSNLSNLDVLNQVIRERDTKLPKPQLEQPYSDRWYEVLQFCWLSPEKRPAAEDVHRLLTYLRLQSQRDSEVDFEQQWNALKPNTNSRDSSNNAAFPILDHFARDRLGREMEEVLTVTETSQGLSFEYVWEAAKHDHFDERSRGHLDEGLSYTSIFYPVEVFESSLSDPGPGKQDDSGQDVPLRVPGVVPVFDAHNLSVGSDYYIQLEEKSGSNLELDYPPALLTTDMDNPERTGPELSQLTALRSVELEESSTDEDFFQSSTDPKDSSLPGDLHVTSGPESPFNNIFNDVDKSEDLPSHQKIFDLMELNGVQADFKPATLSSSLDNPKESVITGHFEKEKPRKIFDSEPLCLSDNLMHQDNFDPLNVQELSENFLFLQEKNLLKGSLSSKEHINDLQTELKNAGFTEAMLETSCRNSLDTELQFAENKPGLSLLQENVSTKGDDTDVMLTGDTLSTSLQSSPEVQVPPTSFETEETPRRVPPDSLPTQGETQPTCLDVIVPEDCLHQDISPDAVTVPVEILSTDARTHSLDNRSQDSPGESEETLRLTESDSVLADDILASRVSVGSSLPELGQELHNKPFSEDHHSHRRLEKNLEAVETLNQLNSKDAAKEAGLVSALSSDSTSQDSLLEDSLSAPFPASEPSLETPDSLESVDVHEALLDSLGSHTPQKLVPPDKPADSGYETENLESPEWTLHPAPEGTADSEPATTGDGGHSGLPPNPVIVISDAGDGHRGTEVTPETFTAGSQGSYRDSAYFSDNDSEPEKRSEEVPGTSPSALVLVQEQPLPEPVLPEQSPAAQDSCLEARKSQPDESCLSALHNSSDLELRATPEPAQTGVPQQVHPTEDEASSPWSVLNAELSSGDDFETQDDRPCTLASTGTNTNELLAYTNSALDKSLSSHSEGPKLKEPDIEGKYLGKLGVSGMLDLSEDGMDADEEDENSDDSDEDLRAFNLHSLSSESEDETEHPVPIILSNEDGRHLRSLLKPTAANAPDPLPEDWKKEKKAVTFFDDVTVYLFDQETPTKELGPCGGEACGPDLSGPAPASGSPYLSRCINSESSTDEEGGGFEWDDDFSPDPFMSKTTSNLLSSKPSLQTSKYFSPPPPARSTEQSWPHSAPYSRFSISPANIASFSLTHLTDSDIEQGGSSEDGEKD
UniProt P07948: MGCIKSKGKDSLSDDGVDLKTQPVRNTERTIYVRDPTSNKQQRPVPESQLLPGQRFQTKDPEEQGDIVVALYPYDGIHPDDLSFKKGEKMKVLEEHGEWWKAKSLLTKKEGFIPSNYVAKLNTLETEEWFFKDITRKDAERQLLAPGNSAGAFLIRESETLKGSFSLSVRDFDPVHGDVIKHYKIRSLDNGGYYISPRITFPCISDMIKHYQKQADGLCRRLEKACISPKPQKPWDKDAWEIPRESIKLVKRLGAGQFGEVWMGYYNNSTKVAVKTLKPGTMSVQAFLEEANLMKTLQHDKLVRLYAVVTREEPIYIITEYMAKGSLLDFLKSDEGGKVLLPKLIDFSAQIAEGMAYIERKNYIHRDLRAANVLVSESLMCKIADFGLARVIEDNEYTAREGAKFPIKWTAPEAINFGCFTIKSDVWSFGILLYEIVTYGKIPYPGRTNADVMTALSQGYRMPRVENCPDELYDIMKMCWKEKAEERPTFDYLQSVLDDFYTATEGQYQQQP
UniProt Q12851: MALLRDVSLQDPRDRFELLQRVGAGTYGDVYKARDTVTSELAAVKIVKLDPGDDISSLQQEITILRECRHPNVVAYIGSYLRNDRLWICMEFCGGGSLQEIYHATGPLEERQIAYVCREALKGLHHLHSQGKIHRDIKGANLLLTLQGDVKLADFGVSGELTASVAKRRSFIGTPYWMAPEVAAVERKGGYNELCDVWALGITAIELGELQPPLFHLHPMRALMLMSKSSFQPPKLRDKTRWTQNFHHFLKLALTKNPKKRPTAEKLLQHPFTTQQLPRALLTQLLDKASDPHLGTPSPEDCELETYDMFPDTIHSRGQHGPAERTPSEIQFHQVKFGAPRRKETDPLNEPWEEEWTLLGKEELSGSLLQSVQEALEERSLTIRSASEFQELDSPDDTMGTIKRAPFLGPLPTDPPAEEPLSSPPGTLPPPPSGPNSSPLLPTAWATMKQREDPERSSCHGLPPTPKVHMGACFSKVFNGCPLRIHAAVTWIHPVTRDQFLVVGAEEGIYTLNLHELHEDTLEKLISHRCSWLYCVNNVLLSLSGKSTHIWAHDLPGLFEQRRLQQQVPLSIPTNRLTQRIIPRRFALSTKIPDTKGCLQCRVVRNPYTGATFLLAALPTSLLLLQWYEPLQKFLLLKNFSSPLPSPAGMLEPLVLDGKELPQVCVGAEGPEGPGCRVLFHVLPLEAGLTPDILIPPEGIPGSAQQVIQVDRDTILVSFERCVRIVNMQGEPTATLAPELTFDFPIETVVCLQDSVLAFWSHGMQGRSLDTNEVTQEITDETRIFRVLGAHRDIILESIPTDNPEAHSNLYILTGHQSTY
UniProt P06239: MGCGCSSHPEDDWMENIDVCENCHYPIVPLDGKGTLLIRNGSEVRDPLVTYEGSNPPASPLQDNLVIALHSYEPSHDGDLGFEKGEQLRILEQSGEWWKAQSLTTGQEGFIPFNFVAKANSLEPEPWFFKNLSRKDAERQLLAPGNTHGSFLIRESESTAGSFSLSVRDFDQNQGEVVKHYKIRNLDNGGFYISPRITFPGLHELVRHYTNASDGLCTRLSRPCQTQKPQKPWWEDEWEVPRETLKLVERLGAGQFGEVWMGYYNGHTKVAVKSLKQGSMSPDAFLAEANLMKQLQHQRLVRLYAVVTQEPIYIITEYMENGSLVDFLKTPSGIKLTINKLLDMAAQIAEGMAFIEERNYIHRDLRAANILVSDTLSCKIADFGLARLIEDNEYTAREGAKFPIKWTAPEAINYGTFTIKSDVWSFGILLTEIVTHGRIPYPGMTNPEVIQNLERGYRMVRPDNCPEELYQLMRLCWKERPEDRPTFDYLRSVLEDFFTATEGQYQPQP

Experiments:
Test in all cases: kinase-Nluc reporter destabilization hit call (1 = scored as downregulated) (binary); higher = compound decreases kinase abundance
Conditions in all cases: K562; 2-18 h
[1] = molecular target: ERN1 (UniProt O75460)
[2] = molecular target: FGFR1 (UniProt P11362)
[3] = molecular target: FGFR2 (UniProt P21802)
[4] = molecular target: FGFR3 (UniProt P22607)
[5] = molecular target: FGR (UniProt P09769)
[6] = molecular target: FLT3 (UniProt P36888)
[7] = molecular target: FYN (UniProt P06241)
[8] = molecular target: GSK3A (UniProt P49840)
[9] = molecular target: HER2 (UniProt P04626)
[10] = molecular target: INSRR (UniProt P14616)
[11] = molecular target: IRAK3 (UniProt Q9Y616)
[12] = molecular target: JAK1 (UniProt P23458)
[13] = molecular target: LIMK1 (UniProt P53667)
[14] = molecular target: LIMK2 (UniProt P53671)
[15] = molecular target: LMTK2 (UniProt Q8IWU2)
[16] = molecular target: LYN (UniProt P07948)
[17] = molecular target: MAP2K1 (UniProt Q02750)
[18] = molecular target: MAP2K2 (UniProt P36507)
[19] = molecular target: MAP4K2 (UniProt Q12851)
[20] = molecular target: LCK (UniProt P06239)

Measured: kinase-Nluc reporter destabilization hit call

COc1cc2c(Nc3ccc(NC(=O)c4ccccc4)cc3)ncnc2cc1OCCCN1CCOCC1 (10 µM)
inactive: [1] 0 | [2] 0 | [3] 0 | [4] 0 | [5] 0 | [6] 0 | [7] 0 | [8] 0 | [9] 0 | [10] 0 | [11] 0 | [12] 0 | [13] 0 | [14] 0 | [15] 0 | [16] 0 | [17] 0 | [18] 0 | [19] 0

CCCCNc1ncc(-c2ccc(CN3CCOCC3)cn2)c(NC2CCC(O)CC2)n1 (stereo unspecified) (10 µM)
inactive: [1] 0 | [2] 0 | [3] 0 | [4] 0 | [5] 0 | [7] 0 | [8] 0 | [9] 0 | [10] 0 | [11] 0 | [12] 0 | [20] 0 | [13] 0 | [14] 0 | [15] 0 | [16] 0 | [17] 0 | [18] 0 | [19] 0

COc1cc(CCc2cc(-c3nc4ccc(N5CCN(C)CC5)cc4[nH]3)n[nH]2)cc(OC)c1 (10 µM)
inactive: [1] 0 | [3] 0 | [5] 0 | [7] 0 | [8] 0 | [9] 0 | [10] 0 | [11] 0 | [12] 0 | [20] 0 | [13] 0 | [14] 0 | [15] 0 | [16] 0 | [17] 0 | [18] 0 | [19] 0

CCN(CC)CCCCNc1ncc2cc(-c3cc(OC)cc(OC)c3)c(NC(=O)NC(C)(C)C)nc2n1 (10 µM)
inactive: [1] 0 | [3] 0 | [4] 0 | [5] 0 | [6] 0 | [7] 0 | [8] 0 | [9] 0 | [10] 0 | [11] 0 | [12] 0 | [20] 0 | [13] 0 | [14] 0 | [15] 0 | [16] 0 | [17] 0 | [18] 0 | [19] 0

Cc1nc(-c2cnc(NC(C)C)n(C)c2=O)ccc1Oc1ccnc(-c2cnn(C)c2)c1 (2.5 µM)
inactive: [1] 0 | [2] 0 | [3] 0 | [4] 0 | [5] 0 | [7] 0 | [8] 0 | [9] 0 | [10] 0 | [11] 0 | [12] 0 | [13] 0 | [14] 0 | [15] 0 | [16] 0 | [17] 0 | [18] 0 | [19] 0

CCN1C(=O)N(c2c(F)c(OC)cc(OC)c2F)Cc2cnc3[nH]c(CN4CCOCC4)cc3c21 [Pemigatinib] (10 µM)
inactive: [1] 0 | [4] 0 | [5] 0 | [6] 0 | [7] 0 | [8] 0 | [9] 0 | [10] 0 | [11] 0 | [12] 0 | [20] 0 | [13] 0 | [14] 0 | [15] 0 | [16] 0 | [17] 0 | [18] 0 | [19] 0

O=C1Nc2ccccc2/C1=C/c1ccc(F)cc1 (10 µM)
inactive: [2] 0 | [3] 0 | [4] 0 | [5] 0 | [6] 0 | [7] 0 | [8] 0 | [9] 0 | [10] 0 | [11] 0 | [12] 0 | [20] 0 | [13] 0 | [14] 0 | [15] 0 | [16] 0 | [17] 0 | [18] 0 | [19] 0

At a glance, two of the compounds above:
Cc1nc(-c2cnc(NC(C)C)n(C)c2=O)ccc1Oc1ccnc(-c2cnn(C)c2)c1 (2.5 µM)
inactive: [1] 0 | [2] 0 | [3] 0 | [4] 0 | [5] 0 | [7] 0 | [8] 0 | [9] 0 | [10] 0 | [11] 0 | [12] 0 | [13] 0 | [14] 0 | [15] 0 | [16] 0 | [17] 0 | [18] 0 | [19] 0

CCN1C(=O)N(c2c(F)c(OC)cc(OC)c2F)Cc2cnc3[nH]c(CN4CCOCC4)cc3c21 [Pemigatinib] (10 µM)
inactive: [1] 0 | [4] 0 | [5] 0 | [6] 0 | [7] 0 | [8] 0 | [9] 0 | [10] 0 | [11] 0 | [12] 0 | [20] 0 | [13] 0 | [14] 0 | [15] 0 | [16] 0 | [17] 0 | [18] 0 | [19] 0

(next part)

CN(C)C[C@@H]1CCn2cc(c3ccccc32)C2=C(C(=O)NC2=O)c2cn(c3ccccc23)CCO1 [Ruboxistaurin (hydrochloride)] (10 µM)
inactive: [1] 0 | [2] 0 | [3] 0 | [4] 0 | [5] 0 | [6] 0 | [7] 0 | [8] 0 | [9] 0 | [10] 0 | [11] 0 | [12] 0 | [13] 0 | [14] 0 | [15] 0 | [16] 0 | [17] 0 | [18] 0 | [19] 0

COc1cc(N2CCC(N)CC2)ccc1Nc1ncc(Cl)c(-c2c[nH]c3ccccc23)n1 (2.5 µM)
inactive: [1] 0 | [2] 0 | [4] 0 | [5] 0 | [6] 0 | [7] 0 | [8] 0 | [9] 0 | [10] 0 | [11] 0 | [12] 0 | [20] 0 | [13] 0 | [14] 0 | [15] 0 | [16] 0 | [17] 0 | [18] 0 | [19] 0

COc1cc(Nc2ncc3c(n2)-c2ccc(Cl)cc2C(c2c(F)cccc2OC)=NC3)ccc1C(=O)O [Alisertib] (2.5 µM)
inactive: [1] 0 | [2] 0 | [3] 0 | [4] 0 | [5] 0 | [6] 0 | [7] 0 | [8] 0 | [9] 0 | [10] 0 | [11] 0 | [12] 0 | [13] 0 | [14] 0 | [15] 0 | [16] 0 | [17] 0 | [18] 0 | [19] 0
